Experimental data reported in US20220011296A1, “DETERMINING TREATMENT RESPONSE IN SINGLE CELLS” (Dana-Farber Cancer Institute, Inc., priority 2018, published 2022).
“Also recorded” adds a separate entry of the source. At least one structure is not confirmed: it was looked up by name or label, or the drawing left a doubt.

Legend:
Format in all cases: cell-based, human
[1] = tested on: recurrent glioblastoma cells (BT1233); assay: sSMR buoyant mass and MAR measurement, recurrent glioblastoma (BT1233); settings: abemaciclib 1 μM, 72 h
[2] = tested on: metastatic breast adenocarcinoma cells (BT1419); assay: sSMR buoyant mass and MAR measurement, breast metastasis (BT1419); settings: abemaciclib 100 nM, 72 h
[3] = tested on: primary CNS lymphoma cells (BT1448); assay: sSMR buoyant mass and MAR measurement, CNS lymphoma (BT1448); settings: ibrutinib 10 nM, 48 h
[4] = tested on: non-tumor brain tissue cells (Normal brain, BT1417); assay: sSMR buoyant mass and MAR measurement, normal brain (BT1417); settings: TMZ 250 μM, 72 h
[5] = tested on: primary glioblastoma cells (BT1410); assay: sSMR buoyant mass and MAR measurement, glioblastoma (BT1410); settings: TMZ 250 μM, 8 days; newly diagnosed glioblastoma
[6] = tested on: glioblastoma multiforme (GBM) patient-derived cell lines (PDCLs); assay: Single cell mass / MAR assay in patient-derived cell lines; settings: for MAR in response to TMZ (in words): FIG. 7D
Protocol: A single cell protocol for monitoring the mass accumulation rate (MAR) in response to chemotherapy (FIGS. 6A-6F). After tumor resection, the tissue is dissociated into single cells (FIG. 6A). The single cells from the dissociated tumor is measured within a week of resection using the mass/MAR of the single cells in response to chemotherapeutic agents (FIG. 6C). In addition to acute sensitivity testing, dissociated tumor cells from patient samples can also be grown long-term into robust cell lines (e.g., patient-derived cell lines, PDCLs), where high throughput experiments can be performed and analyzed relative to a more complete genomic background of the tissue (FIG. 6D). Because this assay is high throughput, the MAR can be measured with more conditions relative to acute patient samples. These PDCLs can be implanted in vivo to allow MAR measurements to be taken ex vivo from treated animals (e.g., mice). Metabolic readouts (e.g., CellTiter-Glo, CTG) and spheroid area analysis (e.g., IncuCyte) were conducted in parallel to the novel single cell MAR assays described herein (FIG. 6E).
Single cell MAR experiments were conducted in both PDCLs and acute patient models (FIGS. 7A-7D). MAR experiments were conducted in cell lines with a wide range of cell morphology, genomic aberrations, and mutations (FIG. 7A). The single cell MAR assay detected changes within 24 hours after treatment with a chemotherapeutic (TMZ) compared with DMSO (FIG. 7A).

[7] = tested on: patient-derived cell lines (PDCLs) spheroids; assay: Spheroid area analysis (IncuCyte); settings: TMZ treated vs DMSO, FIG. 6E

SMILES: CCN1CCN(Cc2ccc(Nc3ncc(F)c(-c4cc(F)c5nc(C)n(C(C)C)c5c4)n3)nc2)CC1 [Abemaciclib]
- Mass-normalized MAR vs vehicle (in words) [1]: significantly reduced; also recorded: Statistically significant reductions
- Mass-normalized MAR vs vehicle (in words) [2]: significantly reduced; also recorded: Statistically significant reductions

SMILES: C=CC(=O)N1CCC[C@@H](n2nc(-c3ccc(Oc4ccccc4)cc3)c3c(N)ncnc32)C1 [Ibrutinib]
- change in mass and MAR vs vehicle (in words) [3]: no significant change

SMILES: Cn1nnc2c(C(N)=O)ncn2c1=O [TMZ, Temozolomide]
- change in mass and MAR vs vehicle (in words) [4]: No change in mass nor MAR
- change in mass and MAR vs vehicle (in words) [5]: no significant change
- MAR in bulk populations in response to TMZ (in words) ([6]; MGMT promoter methylated PDCLs): significant decrease
- MAR in bulk populations in response to TMZ (in words) ([6]; MGMT promoter unmethylated PDCLs): no significant decrease
- MAR in response to TMZ (in words) ([6]; MMR-deficient GBM cell line): nearly identical to the control
- MAR in response to TMZ (in words) ([6]; MMR-proficient GBM cell line): significant decrease
- mass of cells vs DMSO (in words) ([6]; TMZ treated vs DMSO, FIG. 6E): trend to decreased mass
- average spheroid size vs DMSO (in words) [7]: smaller average spheroid size
